Experimental data as given in patent US20120094963A1, “TARGETING PRODRUGS AND COMPOSITIONS FOR THE TREATMENT OF GASTROINTESTINAL DISEASES” (of Queen Elizabeth near Dublin, priority 2008, published 2012).

Assay: Extraction of PC1 and celecoxib from BHI media with two volumes of acetonitrile

Structure (SMILES): Cc1ccc(-c2cc(C(F)(F)F)nn2-c2ccc(S(=O)(=O)NC(=O)CCc3ccccc3/N=N/c3ccc(O)c(C(=O)O)c3)cc2)cc1 [PC1, 2-Hydroxy-5-(2-3{-oxo-3[4-(5-p-tolyl-3-trifluoromethyl-pyrazol-1-yl)-benzenesulfonylamino]-propyl}-phenylazo)-benzoic acid]
- % Concentration recovered (PC1 1.1 μM in BHI media, Exp1): 131.0%
- Average concentration recovered (PC1 1.1 μM in BHI media, Exp1): 1.4 µM
- % Concentration recovered (PC1 1.1 μM in BHI media, Exp2): 101.4%
- Average concentration recovered (PC1 1.1 μM in BHI media, Exp2): 1.1 µM
- % Concentration recovered (PC1 5.5 μM in BHI media, Exp1): 109.0%
- Average concentration recovered (PC1 5.5 μM in BHI media, Exp1): 6.0 µM
- % Concentration recovered (PC1 5.5 μM in BHI media, Exp2): 105.8%
- Average concentration recovered (PC1 5.5 μM in BHI media, Exp2): 5.9 µM
- % Concentration recovered (PC1 16.6 μM in BHI media, Exp1): 102.8%
- Average concentration recovered (PC1 16.6 μM in BHI media, Exp1): 17.1 µM
- % Concentration recovered (PC1 16.6 μM in BHI media, Exp2): 110.8%
- Average concentration recovered (PC1 16.6 μM in BHI media, Exp2): 18.4 µM
